Measurements reported in PubChem BioAssay AID504784 (Drosophila RNAi Screening Center, 2011).
Purpose: 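Search for regulators of lipid droplet storage in oleate-fed fly cells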 (primary screen). Cell system: Drosophila Kc167 embryonic cells. Reagent: long dsRNA against Drosophila genes, about 250 ng dsRNA per well. Duration: 4 days. Challenge: cells fed 400 µM oleic acid bound to BSA. Read-out: 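Cells imaged and segmented; ratio of lipid droplet area to nuclear area, log-transformed, then normalised as a B-score over the screen; higher means more stored lipid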. Scale: droplet/nuclear area B-score: higher = more stored lipid (overstorage).
In all, the deposit lists about 17,000 reagents; this is an unselected part of those that have a named target and a result. 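Each column is one replicate's B-score; the combined score over replicates was not deposited, so single values may mislead.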 The numbers tell different reagents against one gene apart. Further read-outs or replicates are left out here. Reagent sequences are not shown.

no.	predicted target	dsRNA no.	droplet/nuclear area B-score, replicate 1
1	CG31077	1	-1.12
2	NSD	1	0.19
3	CG1368	1	0.621
4	Klp54D	1	1.08
5	CG15528	1	0.913
6	lilli	1	0.747
7	olf186-M	1	1.01
8	Drep2	1	1.73
9	dmrt93B	1	-0.329
10	BTBD9	1	-0.0597
11	BTBD9	2	-2.72
12	CG42539 (retired record)	1	-0.254
13	CG10214	1	-0.819
14	PNKP	1	0.937
15	Trm1	1	-0.594
16	Lamp1	1	0.039
17	Mst84Dc	1	-0.348
18	Lip3	1	1.68
19	Ntf-2	1	0.549
20	CG7702	1	1.94
21	CG14322	1	-0.0483
22	Paics	1	1.36
23	Nulp1	1	-0.0443
24	Grx1t	1	0.0309
25	CG3225	1	-1.18
26	CG13168	1	-1.3
27	Tsp42Eh	1	0.376
28	Ugt35D1	1	-0.857
29	CG3108	1	-0.0559
30	CG31445	1	0.259
31	Acsx1L	1	-1.33
32	dpr3	1	0.165
33	dpr3	2	-0.449
34	dpr3	3	-3.74
35	CG10376	1	0.727
36	mtgo	1	-0.0398
37	mtgo	2	3.26
38	mtgo	3	3.61
39	mtgo	4	1.51
40	mtgo	5	1.64
41	Rh7	1	0.0401
42	Smg6	1	-0.202
43	CG32099	1	-0.229
44	Pcf11	1	2.6
45	Ir48a	1	-0.033
46	CG1737	1	-0.569
47	CG4194	1	0.718
48	CG3544	1	0.0183
49	Osi1	1	0.0145
50	Mmp1	1	-1.27
51	Epg5	1	-0.05
52	CG14182	1	-0.946
53	Tsr1	1	-0.00509
54	Scamp	1	-1.42
55	AIMP3	1	-0.613
56	CG7992	1	0.949

Already shown: entries from further up.
no.	predicted target	dsRNA no.	droplet/nuclear area B-score, replicate 1
29	CG3108	1	-0.0559
30	CG31445	1	0.259
31	Acsx1L	1	-1.33
